Results published in publication PMC10821868.
These are yes or no findings as the source states them, for the method shown. In cells and extracts the contact can be indirect. Some results given as binding are weak or reduced against the parent protein; the word gives no strength.

By UniProt entry, the sequences of proteins in these tests, tags left out.
UniProt Q91YI4: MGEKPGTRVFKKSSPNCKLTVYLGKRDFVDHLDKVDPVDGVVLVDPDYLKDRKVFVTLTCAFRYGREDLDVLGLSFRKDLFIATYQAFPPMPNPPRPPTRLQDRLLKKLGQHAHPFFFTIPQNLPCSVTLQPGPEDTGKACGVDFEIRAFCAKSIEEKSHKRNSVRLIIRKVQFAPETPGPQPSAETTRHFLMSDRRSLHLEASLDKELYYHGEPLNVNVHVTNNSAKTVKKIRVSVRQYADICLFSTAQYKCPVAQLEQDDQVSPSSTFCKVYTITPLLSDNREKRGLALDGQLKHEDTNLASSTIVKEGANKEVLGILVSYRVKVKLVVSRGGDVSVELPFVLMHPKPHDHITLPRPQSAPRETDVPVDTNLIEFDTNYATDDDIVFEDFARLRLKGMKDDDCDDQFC
UniProt Q63844: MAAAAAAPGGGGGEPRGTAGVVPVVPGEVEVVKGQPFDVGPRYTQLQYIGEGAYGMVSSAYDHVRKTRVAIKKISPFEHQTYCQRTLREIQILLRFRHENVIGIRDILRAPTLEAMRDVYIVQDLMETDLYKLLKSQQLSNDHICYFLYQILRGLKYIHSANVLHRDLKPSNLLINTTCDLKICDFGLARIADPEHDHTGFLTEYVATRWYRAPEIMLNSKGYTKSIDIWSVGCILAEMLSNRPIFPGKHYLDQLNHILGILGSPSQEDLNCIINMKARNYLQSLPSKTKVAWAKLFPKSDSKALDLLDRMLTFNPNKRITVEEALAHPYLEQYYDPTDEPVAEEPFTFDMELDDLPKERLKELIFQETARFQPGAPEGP
UniProt P63085: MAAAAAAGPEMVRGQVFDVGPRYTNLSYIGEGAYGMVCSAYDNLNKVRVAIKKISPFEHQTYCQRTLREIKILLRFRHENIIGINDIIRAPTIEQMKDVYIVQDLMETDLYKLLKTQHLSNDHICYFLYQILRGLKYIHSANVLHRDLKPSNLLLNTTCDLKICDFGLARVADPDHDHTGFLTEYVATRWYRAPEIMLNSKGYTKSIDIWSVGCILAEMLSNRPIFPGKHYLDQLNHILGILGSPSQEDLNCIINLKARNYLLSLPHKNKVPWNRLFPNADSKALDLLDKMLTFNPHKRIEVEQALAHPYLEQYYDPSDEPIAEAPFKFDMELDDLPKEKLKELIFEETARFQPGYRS

Target: β-arrestin2 (UniProt Q91YI4)
Assay: co-IP; ImKCs transfected with β-arrestin2, treated with or without 50 nM DPI for 6 h; lysates immunoprecipitated with anti-β-arrestin2; precipitates analysed by Western blotting

Row | Substance | binding
1 | ERK1 (from UniProt Q63844 1-380) | binds
2 | ERK2 (from UniProt P63085 1-358) | binds
3 | PKM2 (from UniProt P52480-1 1-531) (enzyme) | binds
